Experimental findings from paper PMC12869228 are described below.

By UniProt entry, the sequences of proteins in these tests, tags left out. Where a name states a change or a piece, a line headed by the entry shows the natural chain unless it says otherwise.
UniProt P10275: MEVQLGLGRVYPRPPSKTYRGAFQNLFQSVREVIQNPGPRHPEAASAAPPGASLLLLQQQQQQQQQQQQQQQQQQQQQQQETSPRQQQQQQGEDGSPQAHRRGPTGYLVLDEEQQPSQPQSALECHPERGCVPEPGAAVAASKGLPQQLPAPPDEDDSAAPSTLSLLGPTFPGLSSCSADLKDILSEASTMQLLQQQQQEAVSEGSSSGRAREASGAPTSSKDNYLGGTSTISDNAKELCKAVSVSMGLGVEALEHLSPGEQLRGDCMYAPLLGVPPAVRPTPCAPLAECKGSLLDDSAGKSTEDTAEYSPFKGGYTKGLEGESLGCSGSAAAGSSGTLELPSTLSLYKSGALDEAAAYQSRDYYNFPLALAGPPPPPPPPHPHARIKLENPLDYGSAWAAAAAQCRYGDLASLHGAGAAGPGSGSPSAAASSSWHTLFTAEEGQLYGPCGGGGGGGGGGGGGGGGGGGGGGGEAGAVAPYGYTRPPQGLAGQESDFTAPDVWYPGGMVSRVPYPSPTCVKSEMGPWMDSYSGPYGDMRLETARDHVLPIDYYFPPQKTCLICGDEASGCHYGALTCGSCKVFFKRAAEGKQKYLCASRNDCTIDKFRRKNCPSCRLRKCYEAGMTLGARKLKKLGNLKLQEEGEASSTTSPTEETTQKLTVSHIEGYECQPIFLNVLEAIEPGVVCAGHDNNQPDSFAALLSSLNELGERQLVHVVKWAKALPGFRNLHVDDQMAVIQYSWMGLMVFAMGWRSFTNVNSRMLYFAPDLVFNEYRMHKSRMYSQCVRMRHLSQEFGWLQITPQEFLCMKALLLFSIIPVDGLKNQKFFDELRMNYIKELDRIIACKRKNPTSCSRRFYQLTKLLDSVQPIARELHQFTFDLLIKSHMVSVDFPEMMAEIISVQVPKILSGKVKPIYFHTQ
UniProt P04792: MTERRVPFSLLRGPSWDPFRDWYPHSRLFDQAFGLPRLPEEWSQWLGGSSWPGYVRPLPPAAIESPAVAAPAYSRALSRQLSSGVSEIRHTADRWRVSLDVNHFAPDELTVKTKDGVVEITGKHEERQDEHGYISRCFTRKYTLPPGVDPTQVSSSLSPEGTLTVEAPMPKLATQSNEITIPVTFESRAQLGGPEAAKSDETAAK
UniProt Q08999: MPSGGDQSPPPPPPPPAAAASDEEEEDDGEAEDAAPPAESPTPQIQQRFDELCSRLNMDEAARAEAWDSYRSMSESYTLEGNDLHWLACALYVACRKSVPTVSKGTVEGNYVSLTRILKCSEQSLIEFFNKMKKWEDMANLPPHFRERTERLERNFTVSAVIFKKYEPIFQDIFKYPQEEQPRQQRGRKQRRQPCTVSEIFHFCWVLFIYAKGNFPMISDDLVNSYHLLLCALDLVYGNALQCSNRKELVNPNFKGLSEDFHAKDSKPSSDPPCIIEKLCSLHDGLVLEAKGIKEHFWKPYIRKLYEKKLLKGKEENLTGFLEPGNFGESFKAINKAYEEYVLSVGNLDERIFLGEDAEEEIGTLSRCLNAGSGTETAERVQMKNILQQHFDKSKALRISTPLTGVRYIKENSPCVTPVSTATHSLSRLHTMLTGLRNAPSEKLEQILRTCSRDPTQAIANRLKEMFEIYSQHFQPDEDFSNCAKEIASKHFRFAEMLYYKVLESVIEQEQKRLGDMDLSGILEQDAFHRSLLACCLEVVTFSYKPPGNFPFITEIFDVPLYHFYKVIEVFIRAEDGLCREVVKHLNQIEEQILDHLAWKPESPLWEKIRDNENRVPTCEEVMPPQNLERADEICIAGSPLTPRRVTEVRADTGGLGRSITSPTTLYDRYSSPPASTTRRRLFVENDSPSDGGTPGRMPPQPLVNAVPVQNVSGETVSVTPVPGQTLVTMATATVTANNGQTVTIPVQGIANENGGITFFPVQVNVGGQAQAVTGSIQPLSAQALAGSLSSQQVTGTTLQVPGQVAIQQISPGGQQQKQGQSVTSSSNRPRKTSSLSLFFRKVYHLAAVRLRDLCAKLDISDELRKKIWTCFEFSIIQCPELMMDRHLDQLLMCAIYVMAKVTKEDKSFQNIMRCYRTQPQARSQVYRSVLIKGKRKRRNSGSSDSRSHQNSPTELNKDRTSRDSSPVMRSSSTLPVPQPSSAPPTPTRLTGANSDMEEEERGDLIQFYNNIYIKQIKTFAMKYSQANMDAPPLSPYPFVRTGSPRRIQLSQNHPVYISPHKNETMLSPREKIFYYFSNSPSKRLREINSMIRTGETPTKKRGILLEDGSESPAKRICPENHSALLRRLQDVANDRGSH

These are yes or no findings as the source states them, for the method shown. Binding seen in cells or lysates may run through a third protein. Some binding calls cover weakened binding; strength is not graded here.

In test [1] the target is androgen receptor (AR), T878A mutant endogenously expressed in C4-2 cells (human (endogenous in C4-2)) (UniProt P10275). Nature of the test: co-IP; anti-AR antibody on protein A magnetic beads; cytosolic and nuclear fractions of C4-2 cells treated with DMSO, C28 or SAL (1 nM R1881); 4 °C, 2 h; Western blot for HSP27.
The target is the same in test [2]. The experiment in a line: co-IP; anti-AR antibody or normal rabbit IgG on protein A magnetic beads; whole cell lysates of C4-2 cells treated with DMSO, C28 or SAL for 72 h; 4 °C, 2 h; washes with 1x PBS; Western blot for p130. A general note: In western blotting, separated proteins are transferred to a membrane and probed.

Take HSP27 (from UniProt P04792 1-205): the binding entry in test [1] was “binds”.

Consider p130 (from UniProt Q08999 1-1139), for which the binding entry in test [2] was “binds”.
